HELM strings list residues between dots; [ac] is acetyl, [am] amide, other brackets name non-standard units.
Test: general procedure: Fmoc solid-phase peptide synthesis; Rink Amide AM resin; HBTU/HOBt/DIPEA; HATU/DIPEA for unnatural amino acids
Conditions: whole synthesis, scale gram-scale

With “PEPTIDE1{[dR].[dS].C.[Phe4F].R.L.P.C.H.Q.L.[bhArg].C.[am]}|CHEM1{[TATA]}$PEPTIDE1,CHEM1,3:R3-1:R1|PEPTIDE1,CHEM1,8:R3-1:R2|PEPTIDE1,CHEM1,13:R3-1:R3$$$V2.0” the “final purity (method not given)” value was over 95% and the isolated yield was “greater than 50%”.
